# Experimental data from the supplement of paper PMC8728848.
# The list shows a part of the results.
# Experiments:
# Experiment in all cases: glycan array binding signal (z-score within array); higher = stronger binding
# Details in all cases: glycan notation: IUPAC condensed, linker removed
# [1] = molecular target: Fuc(a1-2)[GalNAc(a1-3)]Gal(b1-4)GlcNAc(b1-3)Gal(b1-4)GlcNAc
# Summary of the method: (§1)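 The binding signal is a Z-score computed within each array. Data were drawn from 3228 arrays in the Consortium for Functional Glycomics database, restricted to those with a known protein sequence. Scores were averaged over arrays of the same protein sequence at different concentrations or buffers, and over linkers, and negative values can be taken as non-binding.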
# [2] = molecular target: Fuc(a1-2)[GalNAc(a1-3)]Gal(b1-4)GlcNAc(b1-3)Gal(b1-4)GlcNAc(b1-3)Gal(b1-4)GlcNAc
# Summary of the method: as §1
# [3] = molecular target: Fuc(a1-2)[GalNAc(a1-3)]Gal(b1-4)[Fuc(a1-3)]GlcNAc
# Summary of the method: as §1
# [4] = molecular target: Fuc(a1-2)[GalNAc(a1-4)]Gal(b1-4)GlcNAc
# Summary of the method: as §1
# [5] = molecular target: Fuc(a1-2)[GalNAc(b1-3)]Gal
# Summary of the method: as §1
# Fuc(a1-3)GlcNAc = molecular target: Fuc(a1-3)GlcNAc
# Summary of the method: as §1
# [6] = molecular target: Fuc(a1-3)[Gal(b1-4)]Glc6S
# Summary of the method: as §1
# [7] = molecular target: Fuc(a1-3)[Gal(b1-4)]GlcNAc
# Summary of the method: as §1
# [8] = molecular target: Fuc(a1-3)[Gal(b1-4)]GlcNAc(b1-2)Man(a1-3)[Fuc(a1-3)[Gal(b1-4)]GlcNAc(b1-2)Man(a1-6)]Man(b1-4)GlcNAc(b1-4)GlcNAc
# Summary of the method: as §1
# [9] = molecular target: Fuc(a1-3)[Gal(b1-4)]GlcNAc(b1-3)Gal(b1-3)[Fuc(a1-4)]GlcNAc
# Summary of the method: as §1
# [10] = molecular target: Fuc(a1-3)[Gal(b1-4)]GlcNAc(b1-3)GalNAc
# Summary of the method: as §1
# [11] = molecular target: Fuc(a1-3)[Gal(b1-4)]GlcNAc(b1-4)Gal(b1-4)[Fuc(a1-3)]GlcNAc
# Summary of the method: as §1
# [12] = molecular target: Fuc(a1-3)[Gal(b1-4)]GlcNAc(b1-4)Gal(b1-4)[Fuc(a1-3)]GlcNAc(b1-4)Gal(b1-4)[Fuc(a1-3)]GlcNAc
# Summary of the method: as §1
# [13] = molecular target: Fuc(a1-3)[Gal(b1-4)]GlcNAc(b1-6)[Gal(b1-3)GlcNAc(b1-3)]Gal(b1-4)Glc
# Summary of the method: as §1
# [14] = molecular target: Fuc(a1-3)[Gal(b1-4)]GlcNAc6S
# Summary of the method: as §1
# [15] = molecular target: Fuc(a1-3)[Gal3S(b1-4)]GlcNAc
# Summary of the method: as §1
# [16] = molecular target: Fuc(a1-3)[Gal3S(b1-4)]GlcNAc6S
# Summary of the method: as §1
# [17] = molecular target: Fuc(a1-3)[GalNAc(b1-4)]GlcNAc
# Summary of the method: as §1
# Fuc(a1-4)GlcNAc = molecular target: Fuc(a1-4)GlcNAc
# Summary of the method: as §1
# Fuc(b1-3)GlcNAc = molecular target: Fuc(b1-3)GlcNAc
# Summary of the method: as §1
# Gal(a1-2)Gal = molecular target: Gal(a1-2)Gal
# Summary of the method: as §1
# Gal(a1-3)Gal = molecular target: Gal(a1-3)Gal
# Summary of the method: as §1
# Gal(a1-3)Gal(b1-3)GlcNAc = molecular target: Gal(a1-3)Gal(b1-3)GlcNAc
# Summary of the method: as §1
# [18] = molecular target: Gal(a1-3)Gal(b1-3)GlcNAc(b1-2)Man(a1-3)[Gal(a1-3)Gal(b1-3)GlcNAc(b1-2)Man(a1-6)]Man(b1-4)GlcNAc(b1-4)GlcNAc
# Summary of the method: as §1
# [19] = molecular target: Gal(a1-3)Gal(b1-3)[Fuc(a1-4)]GlcNAc(b1-2)Man(a1-3)[Gal(a1-3)Gal(b1-3)[Fuc(a1-4)]GlcNAc(b1-2)Man(a1-6)]Man(b1-4)GlcNAc(b1-4)GlcNAc
# Summary of the method: as §1
# Gal(a1-3)Gal(b1-4)Glc = molecular target: Gal(a1-3)Gal(b1-4)Glc
# Summary of the method: as §1
# Gal(a1-3)Gal(b1-4)GlcNAc = molecular target: Gal(a1-3)Gal(b1-4)GlcNAc
# Summary of the method: as §1
# [20] = molecular target: Gal(a1-3)Gal(b1-4)GlcNAc(b1-3)GalNAc
# Summary of the method: as §1
# [21] = molecular target: Gal(a1-3)Gal(b1-4)[Fuc(a1-3)]GlcNAc
# Summary of the method: as §1
# [22] = molecular target: Gal(a1-3)Gal(b1-4)[Fuc(a1-3)]GlcNAc(b1-2)Man(a1-3)[Gal(a1-3)Gal(b1-4)[Fuc(a1-3)]GlcNAc(b1-2)Man(a1-6)]Man(b1-4)GlcNAc(b1-4)GlcNAc
# Summary of the method: as §1
# Gal(a1-3)GalNAc = molecular target: Gal(a1-3)GalNAc
# Summary of the method: as §1
# [23] = molecular target: Gal(a1-3)[Gal(a1-4)]Gal(b1-4)GlcNAc
# Summary of the method: as §1
# [24] = molecular target: Gal(a1-4)Gal(b1-3)GlcNAc(b1-2)Man(a1-3)[Gal(a1-4)Gal(b1-3)GlcNAc(b1-2)Man(a1-6)]Man(b1-4)GlcNAc(b1-4)GlcNAc
# Summary of the method: as §1
# Gal(a1-4)Gal(b1-4)Glc = molecular target: Gal(a1-4)Gal(b1-4)Glc
# Summary of the method: as §1
# Gal(a1-4)Gal(b1-4)GlcNAc = molecular target: Gal(a1-4)Gal(b1-4)GlcNAc
# Summary of the method: as §1
# [25] = molecular target: Gal(a1-4)Gal(b1-4)GlcNAc(b1-2)Man(a1-3)[Gal(a1-4)Gal(b1-4)GlcNAc(b1-2)Man(a1-6)]Man(b1-4)GlcNAc(b1-4)GlcNAc
# Summary of the method: as §1
# [26] = molecular target: Gal(a1-4)Gal(b1-4)GlcNAc(b1-3)Gal(b1-4)Glc
# Summary of the method: as §1
# Gal(a1-4)GlcNAc = molecular target: Gal(a1-4)GlcNAc
# Summary of the method: as §1
# Gal(a1-6)Glc = molecular target: Gal(a1-6)Glc
# Summary of the method: as §1
# Gal(b1-2)Gal = molecular target: Gal(b1-2)Gal
# Summary of the method: as §1
# Gal(b1-3)Gal = molecular target: Gal(b1-3)Gal
# Summary of the method: as §1
# Gal(b1-3)Gal(b1-4)GlcNAc = molecular target: Gal(b1-3)Gal(b1-4)GlcNAc
# Summary of the method: as §1
# [27] = molecular target: Gal(b1-3)Gal(b1-4)GlcNAc(b1-2)Man(a1-3)[Gal(b1-3)Gal(b1-4)GlcNAc(b1-2)Man(a1-6)]Man(b1-4)GlcNAc(b1-4)GlcNAc
# Summary of the method: as §1
# Gal(b1-3)GalNAc = molecular target: Gal(b1-3)GalNAc
# Summary of the method: as §1
# [28] = molecular target: Gal(b1-3)GalNAc(a1-3)[Fuc(a1-2)]Gal(b1-4)Glc
# Summary of the method: as §1
binder,measurement,setting,value
"BSR4 (Toxoplasma gondii), Q95NL6 (protein) MVMMGSMQQRRGGLRSNARQLLAVCMSGVVFFSSGQAVADNLLEGLLHRTLQQQVEVTSRLTVAGSDAKCDFFTPATQDSPPVSGSLTLSKGRMTATFECSATQALSISTIPTNIEQNVCDPKKTTNGTVCQFGANGSAGTEVTLKDLLETDRIVNWKVNEQREESNKSQKWSLELHNEDLPLTDKAFVVGCQATSAARGTESGKTAACKLTVNVEARASSLAENNVVTCAYGKGSNPNPVEVEMSTEKNTLTINCGSDGSLQPTTYAEEYCVADSKDVNRCSTTRFVEIFPKFLKSWWVTETQKRTSATLTIPQTDLPEADQQFLVGCVPKKTAPEDPKKDKESGTETGAPTSCTVLVTVKAASSASHASPTVQILAAASSAAA",glycan array binding signal (z-score),[1],0.25
same,glycan array binding signal (z-score),[2],0.347
same,glycan array binding signal (z-score),[3],0.816
same,glycan array binding signal (z-score),[4],-0.251
same,glycan array binding signal (z-score),[5],0.271
same,glycan array binding signal (z-score),Fuc(a1-3)GlcNAc,-1.05
same,glycan array binding signal (z-score),[6],0.507
same,glycan array binding signal (z-score),[7],0.23
same,glycan array binding signal (z-score),[8],-0.078
same,glycan array binding signal (z-score),[9],-0.355
same,glycan array binding signal (z-score),[10],0.599
same,glycan array binding signal (z-score),[11],1.44
same,glycan array binding signal (z-score),[12],0.049
same,glycan array binding signal (z-score),[13],0.068
same,glycan array binding signal (z-score),[14],0.805
same,glycan array binding signal (z-score),[15],0.276
same,glycan array binding signal (z-score),[16],0.574
same,glycan array binding signal (z-score),[17],0.065
same,glycan array binding signal (z-score),Fuc(a1-4)GlcNAc,0.324
same,glycan array binding signal (z-score),Fuc(b1-3)GlcNAc,-0.078
same,glycan array binding signal (z-score),Gal(a1-2)Gal,0.204
same,glycan array binding signal (z-score),Gal(a1-3)Gal,-0.103
same,glycan array binding signal (z-score),Gal(a1-3)Gal(b1-3)GlcNAc,-1.03
same,glycan array binding signal (z-score),[18],1.28
same,glycan array binding signal (z-score),[19],0.647
same,glycan array binding signal (z-score),Gal(a1-3)Gal(b1-4)Glc,-0.417
same,glycan array binding signal (z-score),Gal(a1-3)Gal(b1-4)GlcNAc,-0.719
same,glycan array binding signal (z-score),[20],-0.442
same,glycan array binding signal (z-score),[21],0.809
same,glycan array binding signal (z-score),[22],0.512
same,glycan array binding signal (z-score),Gal(a1-3)GalNAc,0.217
same,glycan array binding signal (z-score),[23],-0.812
same,glycan array binding signal (z-score),[24],-0.234
same,glycan array binding signal (z-score),Gal(a1-4)Gal(b1-4)Glc,-0.57
same,glycan array binding signal (z-score),Gal(a1-4)Gal(b1-4)GlcNAc,-0.356
same,glycan array binding signal (z-score),[25],0.496
same,glycan array binding signal (z-score),[26],-0.086
same,glycan array binding signal (z-score),Gal(a1-4)GlcNAc,-0.167
same,glycan array binding signal (z-score),Gal(a1-6)Glc,0.267
same,glycan array binding signal (z-score),Gal(b1-2)Gal,-0.504
same,glycan array binding signal (z-score),Gal(b1-3)Gal,0.383
same,glycan array binding signal (z-score),Gal(b1-3)Gal(b1-4)GlcNAc,0.289
same,glycan array binding signal (z-score),[27],-0.339
same,glycan array binding signal (z-score),Gal(b1-3)GalNAc,-0.226
same,glycan array binding signal (z-score),[28],-0.221

# In a second layout: results already given
binder | measurement | setting | value
BSR4 (Toxoplasma gondii), Q95NL6 (protein) MVMMGSMQQRRGGLRSNARQLLAVCMSGVVFFSSGQAVADNLLEGLLHRTLQQQVEVTSRLTVAGSDAKCDFFTPATQDSPPVSGSLTLSKGRMTATFECSATQALSISTIPTNIEQNVCDPKKTTNGTVCQFGANGSAGTEVTLKDLLETDRIVNWKVNEQREESNKSQKWSLELHNEDLPLTDKAFVVGCQATSAARGTESGKTAACKLTVNVEARASSLAENNVVTCAYGKGSNPNPVEVEMSTEKNTLTINCGSDGSLQPTTYAEEYCVADSKDVNRCSTTRFVEIFPKFLKSWWVTETQKRTSATLTIPQTDLPEADQQFLVGCVPKKTAPEDPKKDKESGTETGAPTSCTVLVTVKAASSASHASPTVQILAAASSAAA | glycan array binding signal (z-score) | [26] | -0.086
same | glycan array binding signal (z-score) | Gal(a1-4)GlcNAc | -0.167
